Assay results taken from patent publication US20050158425A1, “Thin mouthfeel calcium-fortified beverage containing calcium lactate gluconate citrate” (PURAC BIOCHEM BV, priority 2003, published 2005).

What was measured:
[1] = Comparative taste tests by a test panel; details: compared to a blank; for taste, calcium lactate gluconate sample vs calcium lactate gluconate citrate sample: mineral water containing 10% RDI calcium/serving
[2] = Triangle tests in mineral water with test panels; details: test panels of 19 and 12 persons

CC(O)C(=O)O.O=C(O)[C@H](O)[C@@H](O)[C@H](O)[C@H](O)CO.O=C([O-])CC(O)(CC(=O)[O-])C(=O)O.[Ca+2] [calcium lactate gluconate citrate]
taste, calcium lactate gluconate citrate sample vs calcium lactate gluconate sample ([1]; apple juice containing 30% RDI calcium/serving): better in taste
taste, calcium lactate gluconate sample vs calcium lactate gluconate citrate sample [1]: no difference in taste

CC(O)C(=O)[O-].O=C([O-])[C@H](O)[C@@H](O)[C@H](O)[C@H](O)CO.[Ca+2] [Calcium lactate gluconate, calcium lactate gluconate]
taste, calcium lactate gluconate sample vs calcium lactate gluconate citrate sample [1]: no difference in taste
triangle test, difference from mineral water [2]: None of the tests showed significant difference

O=C(O)[C@H](O)[C@@H](O)[C@H](O)[C@H](O)CO.O=C([O-])CC(O)(CC(=O)[O-])C(=O)O.[Ca+2] [calcium gluconate citrate]
triangle test, difference from mineral water [2]: None of the tests showed significant difference
